58 molecules from PubChem BioAssay AID2685 (National Center for Advancing Translational Sciences (NCATS), 2010) can be followed below.

A short description of the assay: qHTS Assay for Lipid Storage Modulators in Drosophila S3 Cells.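 On cell number change: cells counted by Cell Tracker Red CMTPX staining in the red channel.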 Conditions: BODIPY lipid droplet fluorescence, 18-24 h; for cell number change: measured here: cell count max response, cells fed with added oleic acid. The procedure, abridged:
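Drosophila S3 cells loaded with oleic acid (400 uM, as added) and compounds at several concentrations; lipid droplets imaged by 488-nm laser-scanning cytometry, 500–530 nm intensity and object ratio to cell channel. Percent activity normalized to 20 uM Triacsin C.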

Where [1] appears, read: measured here: cell number channel AC50, cells fed with added oleic acid.
Setting [2] is: measured here: lipid fluorescence (Fed channel) AC50, cells fed with added oleic acid.

The other results are listed elsewhere or left out. Further columns of the screen follow, without active or inactive calls. Compounds called inactive in the main read-out are mostly missing here. Words in brackets tell the shape of the fitted curve; partial curves, single points and poor fits give uncertain potencies.

The term AC50 denotes the concentration at which the activity in the assay is half-maximal. `O=C1NC(=O)C(=Cc2ccc(OCC(=O)N3CCOCC3)cc2)C(=O)N1`: the cell number change was -15.8%. Moreover, the AC50 under setting [1] was 3.66 µM [rising, partial curve]. Also, the AC50 under setting [2] was 0.731 µM [falling, full curve].
On to `CC[N+](CC)(CC#CCO)CC#Cc1ccccc1`, for which the cell number change was -34.5%. The AC50 under setting [1] is 6.51 µM [falling, partial curve]. The AC50 under setting [2] was 20.6 µM [falling, single point].
As to `Cc1ccc(O)c(CN2CCN(c3ccccc3)CC2)c1`, the cell number change is -13.2%. Besides, the AC50 under setting [2] was 29.1 µM [rising, single point].
On to `O=c1[nH]c(=S)n(-c2ccc(Br)cc2)c(O)c1C=Nc1ccc(N2CCOCC2)cc1`, for which the cell number change worked out at 9.01%. The AC50 under setting [2] was 4.11 µM [falling, partial curve, poor fit].
For the molecule `O=c1[nH]c(O)c(N=Nc2cccc(S(=O)(=O)N3CCOCC3)c2)c(=O)[nH]1`, the cell number change was -14.2%. The AC50 under setting [1] is 0.103 µM [falling, partial curve, poor fit].
Turning to `C#CCN(C)[C@H](C)Cc1ccccc1`, the cell number change worked out at 6.14%. Moreover, under setting [2], the AC50 was 0.731 µM [rising, full curve, poor fit].
Turning to `Cc1cc(=O)oc2cc3c(cc12)CCCN3`, the cell number change came out at 8.33%.
`CCOC(=O)Cn1c(=O)oc2cc(S(=O)(=O)NC3CCCc4ccccc43)ccc21` (stereo not drawn): the AC50 under setting [1] is 0.13 µM [falling, full curve, poor fit].
As to `COc1ccccc1C1=NCc2nnc(C)n2-c2ccc(Cl)cc21`, the cell number change worked out at 8.31%. The AC50 under setting [2] is 0.13 µM [rising, full curve, poor fit].
`CN1C(=O)/C(=C/C=C/c2ccco2)C(=O)NC1=S`: the cell number change was -36.6%. Further, the AC50 under setting [2] was 0.184 µM [falling, full curve].
`O=C(CN1CCCCC1)c1ccccc1F`: the cell number change was -1.09%.
As to `OC(CN1CC=C(c2ccccc2)CC1)c1ccccc1` (stereo not drawn), the cell number change is -10.8%. Further, the AC50 under setting [2] was 0.731 µM [falling, partial curve].
On to `O=C1CN=C(c2ccccc2)c2cc(Br)ccc2N1Cc1cc(=O)n2ccccc2n1`, for which the cell number change came out at 9.86%. For the same molecule, under setting [2], the AC50 is 8.2 µM [rising, partial curve, poor fit].
Consider `O=C1NC(=S)NC(=O)C1=Cc1ccc(Br)s1`, for which the cell number change is -49.2%. In addition, under setting [1], the concentration at half-maximal activity (AC50) is 18.4 µM [falling, single point]. In addition, the AC50 under setting [2] is 29.1 µM [falling, single point].
In the case of `Cc1cccc(-n2c(O)c(C=NCCCN3CCOCC3)c(=O)[nH]c2=O)c1C`, under setting [1], the concentration at half-maximal activity (AC50) was 6.51 µM [rising, single point].
As for `CCCCNS(=O)(=O)c1ccc(OCC(=O)N2CCN(Cc3ccc4c(c3)OCO4)CC2)cc1`, the cell number change was -15.6%. Under setting [2], the AC50 is 2.06 µM [falling, partial curve].
As for `COc1ccccc1-n1c(CNCC2CCCO2)nc2ccccc2c1=O` (stereo not drawn), the AC50 under setting [1] is 1.64 µM [falling, partial curve].
With `O=[N+]([O-])c1cccc(NP(=O)(Oc2ccccc2)Oc2ccccc2)c1`, the cell number change is 17.7%.
As for `NC(N)=N/N=C/c1ccc(N2CCOCC2)cc1`, the cell number change is -2.85%. The AC50 under setting [1] was 6.51 µM [rising, single point].
On to `COCCN1C(=O)NC(=O)/C(=C\c2ccc(Br)cc2)C1=O`, for which the cell number change is -27.4%.
Regarding `Cc1cnc[nH]1`, the cell number change is -17.4%. In addition, under setting [2], the concentration at half-maximal activity (AC50) was 9.2 µM [rising, single point].
`CNC(=O)N(C)c1ccc(C(O)(C(=O)OC)C(F)(F)F)cc1` (stereo not drawn): the cell number change was 31.5%. Also, the AC50 under setting [1] is 32.6 µM [rising, single point].
For `O=[N+]([O-])c1ccc(N2CCCC2)c(F)c1Br`, the cell number change is -59.5%. Besides, the AC50 under setting [1] is 18.4 µM [falling, single point]. The half-maximal activity concentration (AC50) under setting [2] was 29.1 µM [falling, single point].
With `C/C=C(\C)C(=O)N[C@@H](c1ccccc1)[C@@H](O)C(=O)O[C@H]1C[C@@]2(O)[C@@H](OC(=O)c3ccccc3)C3[C@](C)(C(=O)[C@H](OC(C)=O)C(=C1C)C2(C)C)[C@@H](O)C[C@H]1OC[C@@]31OC(C)=O` (stereo partly drawn), the cell number change was -3.88%. The AC50 under setting [2] was 29.1 µM [falling, single point].
As for `C=CCN1C(=O)NC(=O)/C(=C/c2cc3c4c(c2)CCCN4CCC3)C1=O`, the cell number change was -18.9%. For the same molecule, the AC50 under setting [1] is 0.103 µM [falling, full curve, poor fit].
On to `CNC(=O)Oc1ccc2c(c1)C(=O)c1ccccc1CO2`, for which the cell number change was -50.6%. Further, the AC50 under setting [1] is 29.1 µM [falling, single point].
Turning to `O=C(c1cccc([N+](=O)[O-])c1)C12CN3CN(CN(C3)C1)C2`, the cell number change was -41.1%. Further, the half-maximal activity concentration (AC50) under setting [1] is 3.66 µM [falling, partial curve, poor fit]. Moreover, the AC50 under setting [2] was 0.82 µM [falling, full curve].
Turning to `CCCCn1c(O)c(/C=C/C=Nc2ccccc2)c(=O)[nH]c1=O`, the cell number change was -30.2%. Further, under setting [1], the AC50 was 29.1 µM [falling, single point].
With `CC1=CC(C)C(COC(N)=O)(COC(N)=O)C(C)C1` (stereo not drawn), the cell number change is -50.1%. Under setting [1], the AC50 is 0.164 µM [falling, full curve, poor fit]. In addition, the AC50 under setting [2] is 0.0731 µM [falling, full curve, poor fit].
For `Nc1c(C(=O)NCc2ccco2)c2nc3ccccc3nc2n1Cc1ccccc1`, the cell number change was -57.5%. Further, the AC50 under setting [1] is 25.9 µM [falling, single point]. For the same molecule, the AC50 under setting [2] was 29.1 µM [falling, single point].
In the case of `CN1CCC(N(C)c2ccc(C(N)=O)cc2[N+](=O)[O-])CC1`, the cell number change is -3.23%. Besides, the AC50 under setting [2] is 0.146 µM [falling, full curve, poor fit].
With `Cc1ccc2c(c1)C1CN(C)CCC1N2S(=O)(=O)c1ccccc1` (stereo not drawn), the cell number change came to 63.6%. In addition, the AC50 under setting [1] was 5.8 µM [rising, full curve].
In the case of `CCOC(=O)c1c(/N=C/c2c(O)n(-c3cccc(C)c3)c(=O)[nH]c2=O)sc2c1CCCC2`, the cell number change turned out to be 2.25%.
For `Oc1ccc(C2NCc3ccccc3-n3cccc32)cc1Cl` (stereo not drawn), the cell number change is -2.32%.
In the case of `C[C@]12CCC(=O)C=C1CC[C@@H]1C2[C@H](O)C[C@]2(C)C(=O)CCC12` (stereo partly drawn), the cell number change was determined as 15.3%. In addition, the AC50 under setting [1] was 6.51 µM [rising, partial curve, poor fit]. Under setting [2], the AC50 is 6.51 µM [falling, single point].
On to `O=C1CC(N2CCC(n3c(=O)[nH]c4ccccc43)CC2)C(=O)N1Cc1ccccc1` (stereo not drawn), for which the AC50 under setting [2] was 0.103 µM [rising, full curve, poor fit].
On to `c1ccc(C2N3CCCN23)cc1` (stereo not drawn), for which the cell number change was -55.5%. Under setting [1], the AC50 is 6.51 µM [falling, partial curve]. Under setting [2], the AC50 is 0.58 µM [falling, single point].
Regarding `O=C(O)C1C2CCC(O2)C1C(=O)Nc1cccc(Br)c1` (stereo not drawn), the cell number change is 28.2%. Under setting [2], the AC50 is 20.6 µM [rising, single point].
With `CC(C)C/C(=N/O)c1c[nH]c2ccccc12`, the AC50 was 6.51 µM [falling, single point] under setting [1] and 6.51 µM [falling, single point] under setting [2].
As to `COc1cccc(C(=O)N2CCC3(CC2)OCCO3)c1`, the cell number change was -11.8%. For the same molecule, the AC50 under setting [2] is 0.0651 µM [falling, full curve, poor fit].
Take `CCc1c(C)nc(N)nc1N1N=C1SCC#N`: the cell number change is 12.5%. The AC50 under setting [2] was 23.1 µM [rising, partial curve, poor fit].
For the molecule `O=C(Cn1nc(Cc2cccnc2)c2ccccc2c1=O)N1CCC2(CC1)OCCO2`, the AC50 under setting [1] was 3.26 µM [rising, single point] and the AC50 under setting [2] is 4.11 µM [rising, single point].
Regarding `COc1ccccc1N1CCN(Cc2ccccc2Cl)CC1`, the cell number change is -70.4%. Also, the half-maximal activity concentration (AC50) under setting [1] was 5.8 µM [falling, full curve].
Take `Cc1cccc(-n2c(O)c(C=NCCN3CCCCC3)c(=O)[nH]c2=O)c1`: the cell number change was -20.6%. The AC50 under setting [1] is 0.651 µM [rising, single point].
Consider `O=P1(NCCCn2cc[n+](Cc3nc4ccccc4[nH]3)c2)C=C(c2ccccc2)OC(c2ccccc2)=C1`, for which the cell number change came out at 19%. In addition, the AC50 under setting [1] is 6.51 µM [rising, partial curve].
With `C[C@]12CCC3=C4CCC(=O)C=C4CC[C@H]3C1CC[C@@H]2O` (stereo partly drawn), the cell number change was -83.8%. In addition, the concentration at half-maximal activity (AC50) under setting [1] was 18.4 µM [falling, single point]. Further, under setting [2], the AC50 was 20.6 µM [falling, single point].
Turning to `CN1CCN(c2ccc(Cl)cc2N)CC1`, the cell number change was -9.19%. In addition, the AC50 under setting [1] is 5.17 µM [falling, single point].
As to `CCCNC(=O)N1[C@H]2CC[C@@H]1C(C(=O)OC)=C(c1ccc(F)cc1F)C2`, the cell number change stood at 11.3%. The AC50 under setting [2] was 29.1 µM [rising, single point].
Regarding `CCOC(=O)C(O)(c1ccc(NC(=S)NC(=O)c2ccc(Cl)cc2Cl)c(C)c1)C(F)(F)F` (stereo not drawn), the cell number change is -5.49%. Besides, the AC50 under setting [2] was 29.1 µM [falling, single point].
For `CC1CN=C(NCc2ccc(F)cc2)S1` (stereo not drawn), the cell number change turned out to be 101%. Further, the AC50 under setting [1] was 23.1 µM [rising, single point].
On to `COc1ccc(C2N3CC(C)(C)CN23)cc1` (stereo not drawn), for which the cell number change amounted to 9.99%. For the same molecule, the AC50 under setting [2] is 5.17 µM [rising, single point].
As for `CN1CCN(c2nc3ccccc3c(=O)n2-c2ccccc2)CC1`, the cell number change was -31%. For the same molecule, the AC50 under setting [1] is 3.66 µM [falling, full curve]. Besides, the AC50 under setting [2] was 29.1 µM [falling, single point].
For `Cc1ccccc1N1CCN(C2CCCN(C(=O)Cc3c(C)noc3C)C2)CC1` (stereo not drawn), the cell number change came out at 16.2%. In addition, the AC50 under setting [1] was 2.91 µM [rising, partial curve, poor fit].
On to `O=C(CN1CC=C(c2ccccc2)CC1)NC(=O)NCc1ccco1`, for which the cell number change was -1.82%. For the same molecule, the AC50 under setting [2] is 1.3 µM [rising, partial curve, poor fit].
Take `O=P(C(c1ccc2c(c1)OCO2)N1CCOCC1)(N1CCOCC1)N1CCOCC1` (stereo not drawn): the cell number change worked out at 9.98%. Moreover, the AC50 under setting [2] was 25.9 µM [rising, single point].
Consider `COCc1c(CN)cnc(C)c1N`, for which the cell number change was determined as 4.09%. In addition, under setting [2], the AC50 was 5.17 µM [falling, full curve].
As to `O=C(N/N=C1/CN2CCC1CC2)c1cccc(O)c1`, the cell number change was -32.9%. Also, the AC50 under setting [1] was 3.66 µM [falling, full curve, poor fit]. The AC50 under setting [2] is 13 µM [falling, partial curve].
For `CCN1CCN(c2ccc(N)cc2)CC1`, the cell number change is -29.8%. In addition, the AC50 under setting [2] is 32.6 µM [falling, single point].
